The entries are a selection whose mix differs from that of the whole data set. The source made the active and inactive calls. Rule as the data show it: active = inhibition above about 80%; inactive = the rest.
What follows are compounds tested against Bifunctional epoxide hydrolase 2 (Homo sapiens) (UniProt P34913) (assay: soluble epoxide hydrolase inhibitors, primary screen, biochemical, human sEH (AID 707)). Settings: recombinant human sEH enzymatic activity assay; at 2 µM; hits give high values.

Sequences of proteins named here, by UniProt entry; tags and fusion partners are left off.
UniProt P34913, whole entry, looked up: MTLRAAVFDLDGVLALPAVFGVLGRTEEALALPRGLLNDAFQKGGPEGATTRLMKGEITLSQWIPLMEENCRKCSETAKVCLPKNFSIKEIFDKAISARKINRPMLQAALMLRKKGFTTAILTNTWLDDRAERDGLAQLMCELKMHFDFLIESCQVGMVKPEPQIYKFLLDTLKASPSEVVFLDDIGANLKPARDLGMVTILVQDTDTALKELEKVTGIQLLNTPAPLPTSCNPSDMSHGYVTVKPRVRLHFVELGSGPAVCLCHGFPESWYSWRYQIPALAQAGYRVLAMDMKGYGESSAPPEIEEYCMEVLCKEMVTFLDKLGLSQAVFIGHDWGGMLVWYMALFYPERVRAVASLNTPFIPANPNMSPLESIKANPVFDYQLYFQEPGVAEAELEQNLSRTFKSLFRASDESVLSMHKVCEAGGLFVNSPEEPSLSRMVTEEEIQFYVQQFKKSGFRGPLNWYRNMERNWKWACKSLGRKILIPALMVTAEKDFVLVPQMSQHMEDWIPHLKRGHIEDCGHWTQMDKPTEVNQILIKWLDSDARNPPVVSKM

Structure (SMILES)	inhibition
CCN(CC)S(=O)(=O)c1cccc(C(=O)Nc2ccc(Cl)cn2)c1	active: 83.9%
